{
  "source": "PubChem BioAssay AID1347131",
  "about": "(National Center for Advancing Translational Sciences (NCATS), 2019)",
  "note": "Several values for one entry are separate records, joined by “and”; a condition that tells them apart may be missing. Equal entries are not always repeated. Among all 410,000 compounds or so, about 2,000 (0.49%) were called active. The inconclusive results got no clear call from the source; some entries with a clear call stand among them for comparison. Calls come from the whole dose curve; tested in HEK293 reporter line. Potencies of inconclusive entries are doubtful fits and often do not repeat. Potency is the fitted concentration of half-maximal effect.",
  "data": [
    {"assay": "qHTS Assay for Foot and Mouth Disease Virus Antivirals: Primary Screen against the MLPCN compound library; note: nearly all actives have a fitted effect of over 55% in size", "conditions": "FMDV antiviral cell-based qHTS; activity, negative = inhibition: at 57.9 µM (top of the series)", "values": [
      {"smiles": "CCN(CC)S(=O)(=O)c1ccc(Cl)c(C(=O)N2CCc3ccccc32)c1", "activity, negative = inhibition": "inconclusive: -43.6% [inhibitor]"},
      {"smiles": "O=C(Nc1nc2ccccc2[nH]1)c1ccccc1OC(F)F", "Potency": "inconclusive: 15.8 µM [inhibitor, single point]"},
      {"smiles": "N#CC1=C(N2CCOCC2)/C(=C\\c2ccccc2)CC1", "Potency": "inconclusive: 10 µM [inhibitor, partial curve]"},
      {"smiles": "COC(=O)CSc1nc(N)c(C#N)c(-c2ccc(O)cc2)c1C#N", "Potency": "inconclusive: 3.98 µM [inhibitor, full curve, poor fit]"},
      {"smiles": "O=C1C=CC2C3C(=O)N(c4ccccc4)C(=O)C3C1N2Cc1ccccc1", "note": "(configuration not stated)", "Potency": "inconclusive: 10 µM [inhibitor, partial curve, poor fit]"},
      {"smiles": "CCc1ccc(NC(=O)c2sc3nc(C)nc(N4CCN(c5ccccn5)CC4)c3c2C)cc1", "activity, negative = inhibition": "inactive: -84.8%"},
      {"smiles": "CCc1cc(C(=O)Nc2ncccc2O)sc1C", "Potency": "inconclusive: 39.8 µM [inhibitor, single point]"},
      {"smiles": "CCCCCCCCSC1=CC(=O)C(OC)=C(OC)C1=O", "Potency": "inconclusive: 17.8 µM [inhibitor, partial curve, poor fit]"},
      {"smiles": "CC(=O)c1ccc(NC(=O)c2cc(S(=O)(=O)N3CCOCC3)ccc2C)cc1", "activity, negative = inhibition": "inactive: -36.2%"},
      {"smiles": "NC(c1csc(NC(=O)c2cccc(OC(F)(F)F)c2)n1)c1ccccc1Cl", "note": "(configuration not stated)", "Potency": "inconclusive: 31.6 µM [inhibitor, partial curve, poor fit]"},
      {"smiles": "C=CC(=O)N1C/C(=C/c2ccc(Cl)cc2)C(=O)/C(=C\\c2ccc(Cl)cc2)C1", "Potency": "inconclusive: 8.91 µM [inhibitor, full curve, poor fit]"},
      {"smiles": "c1nc(CCO[C@H]2CCCCO2)cc2cc3c(cc12)OCO3", "Potency": "inconclusive: 20 µM [inhibitor, single point]"},
      {"smiles": "Cc1ccsc1/C=C1\\C(=O)NC(=S)N(C)C1=O", "Potency": "inconclusive: 31.6 µM [inhibitor, partial curve, poor fit]"},
      {"smiles": "COc1cc2nc(N3CCN(c4cc(C)ccc4C)CC3)nc(N)c2cc1OC", "Potency": "inconclusive: 25.1 µM [inhibitor, partial curve, poor fit]"},
      {"smiles": "O=C(c1ccco1)N1CCN(c2ncnc3c2[nH]c2ccc(Br)cc23)CC1", "Potency": "active: 31.6 µM"},
      {"smiles": "CS(=O)(=O)N(CC(=O)Nc1ccccc1)c1cccc(Cl)c1Cl", "Potency": "inconclusive: 3.55 µM [inhibitor, full curve]"},
      {"smiles": "Cc1ccc(NC(=O)Cn2nc(C(=O)O)c3ccccc3c2=O)cc1S(=O)(=O)N1CCCCC1", "Potency": "inconclusive: 39.8 µM [inhibitor, partial curve, poor fit]"},
      {"smiles": "CCCc1cc(-c2[nH]ncc2-c2ccc3c(c2)OCCCO3)c(O)cc1O", "Potency": "inconclusive: 14.1 µM [inhibitor, partial curve, poor fit]"},
      {"smiles": "COc1ccc2sc(N(CCCN(C)C)C(=O)c3ccc(S(=O)(=O)N4CCc5ccccc5C4)cc3)nc2c1", "Potency": "inconclusive: 25.1 µM [inhibitor, single point]"},
      {"smiles": "CC(C)c1ccc(-c2nnc3n(CCc4ccccc4)c(=O)c4ccccc4n23)cc1", "Potency": "inconclusive: 28.2 µM [inhibitor, partial curve, poor fit]"},
      {"smiles": "O=C(NCc1ccc2c(c1)OCO2)c1nc(S(=O)(=O)Cc2ccccc2)ncc1Cl", "Potency": "inconclusive: 15.8 µM [inhibitor, partial curve, poor fit]"},
      {"smiles": "CSc1nc(-c2ccccc2)nc(SC)c1C(C)=O", "Potency": "inconclusive: 14.1 µM [inhibitor, partial curve]"},
      {"smiles": "COC(=O)c1c(NC(=O)c2c(-c3ccccc3Cl)noc2C)sc2c1CCC2", "Potency": "inconclusive: 14.1 µM [inhibitor, partial curve, poor fit]"},
      {"smiles": "C=CCOC(=O)C1=C(C)NC(=O)NC1c1cc(Cl)cc(Cl)c1OC", "note": "(configuration not stated)", "Potency": "inconclusive: 2.82 µM [inhibitor, full curve]"},
      {"smiles": "O=C(Nc1nc(-c2ccc(S(=O)(=O)N3CCOCC3)cc2)cs1)c1ccccc1", "Potency": "inconclusive: 8.91 µM [inhibitor, partial curve, poor fit] and inconclusive: 14.1 µM [inhibitor, partial curve, poor fit]"},
      {"smiles": "C[C@@H](CSc1ccc(Br)cc1)CN1CC[C@H](NC(=O)OCc2ccccc2)CCC1=O", "Potency": "inconclusive: 25.1 µM [inhibitor, single point]"},
      {"smiles": "Cc1ccc2cc(CCNC(=O)c3cccc([N+](=O)[O-])c3)c(=O)[nH]c2c1", "Potency": "inconclusive: 20 µM [inhibitor, partial curve, poor fit]"},
      {"smiles": "Cc1ccc(C)c(N2CCN(C(=O)CCCCCn3c(=S)[nH]c4ccc(N5CCOCC5)cc4c3=O)CC2)c1", "Potency": "inconclusive: 3.16 µM [inhibitor, partial curve, poor fit]"},
      {"smiles": "CCCCCCN1C[C@@H](n2cc(COC(=O)c3ccccc3)nn2)[C@H](O)C[C@@H]1c1ccccc1", "Potency": "inconclusive: 11.2 µM [inhibitor, partial curve, poor fit]"},
      {"smiles": "C=CCn1c(C)cc(C(=O)CSc2nc3ccccc3[nH]2)c1C", "Potency": "inconclusive: 10 µM [inhibitor, partial curve, poor fit]"},
      {"smiles": "CC(C)(C)c1ccc(-c2nnc3sc(-c4ccccn4)nn23)cc1", "Potency": "inconclusive: 35.5 µM [inhibitor, single point]"},
      {"smiles": "CCN(CC)c1ccc(O)c(C=Nc2ccc(C)c(C)c2)c1", "Potency": "inconclusive: 35.5 µM [inhibitor, single point]"},
      {"smiles": "Cc1cc(Cl)c(S(=O)(=O)N2CCSCC2)cc1OCC(=O)NC1CCCCC1", "Potency": "inconclusive: 11.2 µM [inhibitor, partial curve, poor fit]"},
      {"smiles": "Clc1cccc(N2CCN(c3c4c(nc5nncn35)CCC4)CC2)c1", "Potency": "inconclusive: 22.4 µM [inhibitor, partial curve, poor fit]"},
      {"smiles": "CCOc1ccc(C(=O)Nc2onc3c2CCCC3)cc1", "Potency": "inconclusive: 14.1 µM [inhibitor, single point]"},
      {"smiles": "COc1ccc(NC(=O)Nc2c(O)ccc3ccccc23)cc1", "activity, negative = inhibition": "inactive: 132%"},
      {"smiles": "Cc1ccccc1C(=O)/C(C#N)=N/Nc1c(C)n(C)n(-c2ccccc2)c1=O", "activity, negative = inhibition": "inconclusive: -31.7% [inhibitor]"}
    ]}
  ]
}
